Reference: PubChem BioAssay AID1347076 (National Center for Advancing Translational Sciences (NCATS), 2019)
Screen size: about 400,000 compounds; about 13,000 (3.2%) were called active. This list was built around the results that the source calls inconclusive (neither active nor inactive); the mix of calls is not that of the screen. Calls come from the whole dose curve; as a rule, active = well fitted cell-killing curve with a large enough effect; inconclusive = small, poorly fitted or top-dose-only effect, or effect the other way; inactive = flat fitted curve, though single readings scatter. Potencies beside an inconclusive call are fits to weak or partial responses and may not hold up.

assay: qHTS assay for MDR1-selective chemotherapeutics: Primary screen using the drug-selected MDR subline cells KB-V1; details: KB-V1 MDR cells viability, CellTiter-Glo, 72 h; activity change, negative = cytotoxicity: at 46.1 µM (top of the series); note: nearly all actives have a fitted effect of over 60% in size
Method in brief: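 qHTS viability screen in drug-selected KB-V1 MDR cells: 72 h compound treatment at 37 degrees C, ATP luminescence end point.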
% is set by controls: 0 for no effect and ±100 for the full control effect; potency is the fitted concentration of half-maximal effect.

SMILES	Potency	activity change, negative = cytotoxicity
CNc1ncnc2sc(-c3ccccc3)cc12	active: 9.2 µM	
COc1ccc(NC(=O)c2cc([N+](=O)[O-])ccc2O)cc1	inconclusive: 29.1 µM [cytotoxic, single point]	
O=C(N/N=C/c1ccncc1)c1cccs1	inactive	
O=C(CSc1ccccn1)N1CCN(c2ccc(Cl)cc2)CC1	inconclusive: 29.1 µM [cytotoxic, single point]	
CCOc1ccc(-n2ccnc2SCC(=O)Nc2cc(C)on2)cc1	active: 14.6 µM	
CCOC(=O)c1nn(-c2ccc(OCC)cc2)c(C)c1C(C)=O	inconclusive: 29.1 µM [cytotoxic, single point]	
COc1ccc(C(=S)Nc2ccccc2)cc1	inconclusive: 29.1 µM [rising, single point]	
CC(C)(C)c1ccc(C(=O)NNC(=O)C(=O)N2CCCCC2)cc1	inconclusive: 20.6 µM [cytotoxic, single point]	
CCOCCCNc1c(CC)c(C)c(C#N)c2nc3ccccc3n12	inconclusive: 1.03 µM [cytotoxic, full curve, poor fit]	
COc1cnc(-c2ccccn2)nc1Oc1ccc(Cl)c2ccccc12	inconclusive: 8.2 µM [cytotoxic, partial curve]	
Cc1ccc(S(=O)(=O)N2CCOCC2)cc1C(=O)NCc1ccccn1	inconclusive: 18.4 µM [rising, single point]	
O=S(=O)(c1ccc(Br)cc1)N1CCN(c2nc(-c3cccs3)nc3ccccc23)CC1	inactive	
O=C(Nc1ccccc1C(=O)OCc1cc(=O)n2nc(C3CC3)sc2n1)c1cccc(F)c1	inconclusive: 4.11 µM [rising, partial curve, poor fit]	
COc1ccc(/C=C/c2cccc[n+]2C)c(O)c1	inactive	
CC(=O)c1ccc(NC(=O)N2CCN(c3cccc(Cl)c3)CC2)cc1	active: 23.1 µM	
COc1ccc(CN(C2CCCC2)S(=O)(=O)c2ccc(-n3cnnn3)c(OC)c2)cc1OC	inconclusive: 6.51 µM [cytotoxic, partial curve]	
N#Cc1nnn2c1nc(N)c1c(F)cccc12	active: 2.91 µM	
CCc1cc(C(=O)NC2CCCc3c2cnn3-c2ccc(F)cc2F)no1 (stereo not given)	inconclusive: 2.06 µM [cytotoxic, full curve, poor fit]	
Cc1ccc(S(=O)(=O)N(Cc2ccccc2)c2ccccc2C(=O)NCc2cccnc2)cc1	active: 23.1 µM	
COc1ccc2c(Cl)c(C(=O)NCCc3ccc(S(N)(=O)=O)cc3)sc2c1	inconclusive: 20.6 µM [cytotoxic, single point]	
CCCOc1ccccc1/C=C1\SC(N2CCCCC2)=NC1=O	inactive	
O=C(NCCN1CCN(c2ccccc2)CC1)c1cccn2c(=O)c3cc(Cl)ccc3nc12	inactive	
N#C/C(=C\c1cc(Br)ccc1F)C(=O)NC1CC1	inconclusive: 11.6 µM [rising, single point]	
Oc1ccccc1-c1cc(-c2ccc(Cl)cc2)n[nH]1	inconclusive: 29.1 µM [cytotoxic, single point]	

SMILES	Potency	activity change, negative = cytotoxicity
CCOP(=O)(OCC)c1nc(-c2ccccc2Cl)oc1N1CCOCC1	inconclusive: 11.6 µM [cytotoxic, partial curve, poor fit]	
NCCCn1cnc2ccccc21	inconclusive: 29.1 µM [rising, single point]	
O=C(Nc1ccc2c(c1)OCCO2)C1CCN(C(=O)c2ccc(Cl)cc2)CC1	inconclusive: 23.1 µM [cytotoxic, partial curve]	
O=C(c1ccncc1)c1ccc([N+](=O)[O-])cc1	inconclusive: 20.6 µM [rising, single point]	
O=C(CCNC(=O)c1ccco1)NCc1ccc(C(=O)O)cc1		inconclusive: 0.36%
N#Cc1ccccc1OCC(=O)OCC(=O)NC1CC1	inconclusive: 29.1 µM [rising, single point]	
Cc1cc(C(=O)CSc2nnnn2-c2ccc(O)cc2)c(C)n1Cc1ccc2c(c1)OCO2	active: 14.6 µM	
CCC(C)N1C(=O)/C(=C/c2c(NCCCOC(C)C)nc3c(C)cccn3c2=O)SC1=S (stereo not given)	active: 6.51 µM	
CC(O)CNc1ncnc2cc(-c3ccc(F)cc3)sc12 (stereo not given)	inconclusive: 20.6 µM [cytotoxic, partial curve, poor fit]	
CN(NS(=O)(=O)c1ccccc1)c1nc2ccccc2nc1C(F)(F)F	inactive	
COc1ccc(S(=O)(=O)N2CCC(C(=O)Nc3cc(C(F)(F)F)ccc3Cl)CC2)cc1	inconclusive: 2.06 µM [rising, full curve]	
O=c1[nH]c(=O)n([C@H]2C[C@H](O)[C@@H](CO)O2)cc1F	inconclusive: 3.26 µM [cytotoxic, partial curve, poor fit]	
CN(C)C(=S)SCC(=O)Nc1ccc(Cl)cc1Cl	inactive	
COc1cc(C(=O)NCc2ccc(C)cc2)ccc1OCc1c(C)noc1C	inactive	
COc1ccc(C(NC(=O)CN2C(=O)NC3(CCc4ccccc43)C2=O)c2ccccc2)cc1 (stereo not given)	inactive	
C/C(CC(=O)Nc1ccccc1)=N\NC(=O)COc1ccc(C)cc1Br	inconclusive: 20.6 µM [rising, single point]	
Cc1nn(C)c(C)c1CN(C)C(=O)c1cc2n(n1)C(C(F)(F)F)CC(c1cccs1)N2 (stereo not given)	inactive	
CCCCn1c(SCC(=O)NC2CCCC2)nc2ccccc2c1=O	inconclusive: 2.91 µM [cytotoxic, full curve]	
COc1ccccc1CNC(=O)CSc1ccc(-c2ccccn2)nn1	inconclusive: 5.8 µM [cytotoxic, partial curve]	
O=C(c1cn(-c2ccccc2)nc1-c1ccc(Br)cc1)N1CCOCC1	inconclusive: 18.4 µM [cytotoxic, partial curve, poor fit]	
COc1ccc(S(=O)(=O)N2CCCCCC2)cc1C(=O)N(C)CC(=O)Nc1ccccc1Cl	inconclusive: 7.31 µM [cytotoxic, partial curve, poor fit]	
CC(C)(C)NCC(O)CON=C1c2ccccc2-c2ccccc21 (stereo not given)	inconclusive: 16.4 µM [cytotoxic, single point]	
COC(=O)c1ccccc1NC(=O)CN(Cc1ccc(Cl)cc1)S(C)(=O)=O	inconclusive: 5.17 µM [cytotoxic, full curve]	
Cc1ccc(C)c(N(CC(=O)NCc2ccco2)C(=O)CCC(=O)Nc2nccs2)c1	inactive	

Structures listed so far that contain a nitro group on carbon:
SMILES	Potency	activity change, negative = cytotoxicity
COc1ccc(NC(=O)c2cc([N+](=O)[O-])ccc2O)cc1	inconclusive: 29.1 µM [cytotoxic, single point]	
O=C(c1ccncc1)c1ccc([N+](=O)[O-])cc1	inconclusive: 20.6 µM [rising, single point]	

Arranged by length of the SMILES (smallest number first): part of the list above.
SMILES	Potency	activity change, negative = cytotoxicity
NCCCn1cnc2ccccc21	inconclusive: 29.1 µM [rising, single point]	
COc1cnc(-c2ccccn2)nc1Oc1ccc(Cl)c2ccccc12	inconclusive: 8.2 µM [cytotoxic, partial curve]	
COc1cc(C(=O)NCc2ccc(C)cc2)ccc1OCc1c(C)noc1C	inactive	

(list continues)

SMILES	Potency	activity change, negative = cytotoxicity
CCOc1ccc2[nH]c(C(=O)N/N=C/c3ccccc3OC)cc2c1	inconclusive: 9.2 µM [cytotoxic, single point]	
Cc1ccc2[nH]c(=O)c(CN(C(=O)c3cccc([N+](=O)[O-])c3)C(C)C)cc2c1	inactive	
CCCCC(CC)CNC(=O)C(=O)c1ccccc1NC(C)=O (stereo not given)	inconclusive: 29.1 µM [cytotoxic, single point]	
CC1CCc2c(C(=O)NCc3ccco3)csc2C1 (stereo not given)	inactive	
CC(=O)c1ccc(NC(=O)C(C)n2c3ccccc3c3nc(=O)cc(C)n32)cc1 (stereo not given)	inconclusive: 18.4 µM [cytotoxic, partial curve, poor fit]	
CCC(C)Sc1ccc([C@H]2N[C@@](Cc3ccccc3)(C(=O)OC)[C@H]3C(=O)N(CC)C(=O)[C@@H]23)cc1 (stereo not given in full)	inconclusive: 29.1 µM [cytotoxic, single point]	
COc1cc2c(cc1OC)C(C(=O)Nc1cc(OC)c(OC)c(OC)c1)C(c1cccnc1)N(C)C2=O (stereo not given)		inconclusive: -4.98%
Cc1cc(Cl)ccc1OCC(=O)N1CC(C)CC(C)C1 (stereo not given)	inconclusive: 29.1 µM [cytotoxic, single point]	
CC(=O)c1ccccc1OCCn1nnc(-c2ccc(C)cc2)n1	inconclusive: 14.6 µM [cytotoxic, partial curve]	
Cc1ccc2occ(CC(=O)Nc3ccc(S(=O)(=O)N4CCC(C)CC4)cc3)c2c1	inconclusive: 18.4 µM [cytotoxic, single point]	
Cc1nc2nc(C)c(CCC(=O)NCc3ccccc3)c(C)n2n1	inactive	
Cc1ccc(N(Cc2ccccc2)C(=O)Cc2ccc(S(=O)(=O)N3CCOCC3)s2)cc1	inconclusive: 16.4 µM [cytotoxic, partial curve, poor fit]	
CC(=O)/C(C#N)=C1\NC(=O)C(Cc2ccccc2)S1 (stereo not given)	active: 13 µM	
CCN1CCc2c(OCC(=O)N3CCCc4ccccc43)cccc2C1=O	inconclusive: 5.17 µM [cytotoxic, partial curve]	
CC1CCN(S(=O)(=O)c2ccc3c(c2)N(CC(=O)NCC(C)c2ccccc2)C(=O)CO3)CC1 (stereo not given)	inconclusive: 8.2 µM [cytotoxic, partial curve]	
CC(=O)Nc1ccc(NC(=O)c2ccc(-c3c(C)noc3C)c3ccoc23)cc1	inactive	
N#C/C(=C\c1ccc(C#N)cc1)C(=O)c1ccccc1	inactive	
Cc1ccccc1Nc1nc(N)nc(CN(C)Cc2ccccc2Cl)n1	inconclusive: 14.6 µM [cytotoxic, single point]	
CCCc1nnc(SCC(=O)N2CCOCC2)n1CC1CCCO1 (stereo not given)	inconclusive: 18.4 µM [rising, single point]	
O=S1(=O)c2cccc3cccc(c23)N1Cc1nnc(-c2ccccc2Br)o1	inconclusive: 16.4 µM [cytotoxic, single point]	
Cc1cc(C)cc(C(=O)NC(CC(N)=O)c2ccc(N3CCC(Cc4ccccc4)CC3)c([N+](=O)[O-])c2)c1 (stereo not given)	inactive	
Cc1cc2c(cc1C)-c1nnnn1C(C)(C)C2	inconclusive: 18.4 µM [cytotoxic, partial curve, poor fit]	
